Results deposited as PubChem BioAssay AID1224830 (NIAID, 2016).

- Assay: 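Host factors that control LPS-induced TNF expression in human macrophages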 (primary screen)
- Cell system: human THP-1 monocytic leukaemia cells, TNF dual-luciferase reporter clone, PMA-differentiated to macrophage-like cells
- Reagent: siRNA pool against human genes, 50 nM
- Time to read-out: LPS for 4 h, given about 3 days after siRNA transfection
- Conditions: bacterial LPS (TLR4 ligand), 10 ng/ml
- Measurement: 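TNF firefly reporter luminescence divided by renilla, normalised to the plate median, then turned into a robust z-score for each replicate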
- Reading the numbers: TNF reporter robust z-score: higher = stronger TNF reporter response to LPS
- Rule for the call: 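a well is active when its z-score exceeds 2.8 or falls below -1.5; control wells carry no call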
The deposit covers about 18,000 reagents; shown is an unselected part. Of all reagents, about 2,900 (16%) were called active. 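Calls are made per well; low scores hint the gene aids the LPS response, high scores that it dampens it.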 Entries without a mark were called inactive. Repeated entries: four replicate wells of each siRNA pool.

PIK3CD-AS1: TNF reporter robust z-score = 0.7
PIK3CD-AS1: TNF reporter robust z-score = 1.41
PIK3CD-AS1: TNF reporter robust z-score = 0.34
PIK3CD-AS1: TNF reporter robust z-score = -1.04
TJP3: TNF reporter robust z-score = 0.94
TJP3: TNF reporter robust z-score = 1.25
TJP3: TNF reporter robust z-score = 0.62
TJP3: TNF reporter robust z-score = 1.27
MIPEP: TNF reporter robust z-score = 0.41
MIPEP: TNF reporter robust z-score = 0.57
MIPEP: TNF reporter robust z-score = 0.06
MIPEP: TNF reporter robust z-score = 0.59
RASSF6: TNF reporter robust z-score = -0.41
RASSF6: TNF reporter robust z-score = -0.02
RASSF6: TNF reporter robust z-score = 0.13
RASSF6: TNF reporter robust z-score = 0.24
GASK1B: TNF reporter robust z-score = 0.65
GASK1B: TNF reporter robust z-score = 1.27
GASK1B: TNF reporter robust z-score = 3.24 (active)
GASK1B: TNF reporter robust z-score = 1.42

8 neighbouring reagents from above, for reference:
MIPEP: TNF reporter robust z-score = 0.59
RASSF6: TNF reporter robust z-score = -0.41
RASSF6: TNF reporter robust z-score = -0.02
RASSF6: TNF reporter robust z-score = 0.13
RASSF6: TNF reporter robust z-score = 0.24
GASK1B: TNF reporter robust z-score = 0.65
GASK1B: TNF reporter robust z-score = 1.27
GASK1B: TNF reporter robust z-score = 3.24 (active)

Next records follow.
TUBGCP6: TNF reporter robust z-score = 0.06
TUBGCP6: TNF reporter robust z-score = 1.72
TUBGCP6: TNF reporter robust z-score = 0.2
TUBGCP6: TNF reporter robust z-score = -0.4
GRM1: TNF reporter robust z-score = -0.43
GRM1: TNF reporter robust z-score = 0.28
GRM1: TNF reporter robust z-score = -0.63
GRM1: TNF reporter robust z-score = -0.49
CTSC: TNF reporter robust z-score = -0.71
CTSC: TNF reporter robust z-score = 0.18
CTSC: TNF reporter robust z-score = -0.25
CTSC: TNF reporter robust z-score = 1.01
ATAD1: TNF reporter robust z-score = -1.49
ATAD1: TNF reporter robust z-score = -1.23
ATAD1: TNF reporter robust z-score = -1.43
ATAD1: TNF reporter robust z-score = -0.01
SLC25A52: TNF reporter robust z-score = 0.52
SLC25A52: TNF reporter robust z-score = 0.99
SLC25A52: TNF reporter robust z-score = 0.31
SLC25A52: TNF reporter robust z-score = 1.1
CBLN2: TNF reporter robust z-score = -0.86
CBLN2: TNF reporter robust z-score = -0.34
CBLN2: TNF reporter robust z-score = -0.31
CBLN2: TNF reporter robust z-score = 0.39
CNGA2: TNF reporter robust z-score = 0.97
CNGA2: TNF reporter robust z-score = 0.09
CNGA2: TNF reporter robust z-score = -1.17
CNGA2: TNF reporter robust z-score = 0.76
FBXL12: TNF reporter robust z-score = 2.34
FBXL12: TNF reporter robust z-score = 1.17
FBXL12: TNF reporter robust z-score = -0.36
FBXL12: TNF reporter robust z-score = 0.35
SNTB2: TNF reporter robust z-score = 0.12
SNTB2: TNF reporter robust z-score = 1.24
SNTB2: TNF reporter robust z-score = 0.67
SNTB2: TNF reporter robust z-score = 1.46
CUX1: TNF reporter robust z-score = -0.67
CUX1: TNF reporter robust z-score = -1.32
CUX1: TNF reporter robust z-score = -0.42
CUX1: TNF reporter robust z-score = -1.08
